The values that follow come from PubChem BioAssay AID1487 (National Center for Advancing Translational Sciences (NCATS), 2009).

By AC50 is commonly meant the midpoint of the concentration-response curve, whichever way the signal moves.

The assay can be described thus: qHTS Assay for Modulators of Lamin A Splicing. Particulars: HeLa LMNA splicing GFP/RFP minigene ratio, 48 h. In short, it runs like this:
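S3 HeLa stable clones carrying a lamin A-EGFP splicing minigene plus DsRed2 were seeded at 600 cells/well in Opti-MEM with 2% FBS, pin-dosed and incubated 48 h at 37°C. Acumen cytometry (488 nm) gave the GFP/RFP total-intensity ratio.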
On the technique in general: In qHTS, concentration-response curves come from the screen itself.

The mark [1] stands for this setting: measured here: GFP splicing reporter channel.
Setting [2] is: measured here: RFP viability control channel.

Where “and” joins values, the source holds several entries; their conditions need not be identical. Equal entries are not always repeated. The list shows a part of the results. Further columns of the screen follow, without active or inactive calls. Compounds called inactive in the main read-out are mostly missing here. The note in brackets gives the kind of curve behind each potency; many fits are weak.

For the compound `CCCNC(=O)COC(=O)/C=C/c1ccc2c(c1)OCO2`, under setting [1], the AC50 is 20 µM [rising, single point].

With `Cc1ccc(-c2[nH]nc(N)c2N=Nc2cccc(Cl)c2C)cc1`, the AC50 reads like this: under setting [1], 25.1 µM [falling, single point]; under setting [2], 35.5 µM [falling, single point].

On to `CCCOc1cccc(C(=O)NC(=S)Nc2ccccc2)c1`, for which, under setting [2], the AC50 was 35.5 µM [rising, single point].

For the compound `CC(C)(C)C1CCc2c(sc(NC(=O)CSc3ncn[nH]3)c2C#N)C1` (centres undefined), the AC50 under setting [2] is 12.6 µM [rising, single point].

`CC(C)c1ccc(NC(=O)C2Cc3ccccc3N2C(=O)c2ccccc2)cc1` (centres undefined): the AC50 runs as follows: under setting [1], 3.98 µM [rising, partial curve, poor fit]; under setting [2], 5.01 µM [rising, single point].

Turning to `Cc1cc(C)cc(-n2c(C)cc(/C=C3\C(=N)N4N=C(CC(C)C)SC4=NC3=O)c2C)c1`, the AC50 reads like this: under setting [1], 25.1 µM [rising, single point]; under setting [2], 35.5 µM [rising, single point].

As to `Cc1cc(C(=O)Nc2cccc3cccnc23)ccc1[N+](=O)[O-]`, the AC50 under setting [2] was 0.126 µM [falling, full curve, poor fit].

As for `COCCn1c(-c2ccc(OC)cc2)cnc1SCC(=O)Nc1cc(C)on1`, under setting [2], the concentration at half-maximal activity (AC50) is 12.6 µM [rising, single point].

Take `CCN(CC)c1ccc(C=Nc2ccc(C)cc2)c(O)c1`: the AC50 reads like this: under setting [1], 14.1 µM [rising, single point]; under setting [2], 12.6 µM [rising, single point].

`CC(=O)Nc1cccc(C(=O)O)n1`: the AC50 under setting [1] is 1.26 µM [falling, single point] and the AC50 under setting [2] was 0.891 µM [falling, partial curve].

Take `c1ccc(C[n+]2cccc(-c3ccccc3)c2)cc1`: the AC50 is 12.6 µM [rising, partial curve] under setting [1] and 14.1 µM [rising, partial curve] under setting [2].

As for `C#C[C@]1(O)CC[C@@H]2[C@H]3CCc4cc(OC)ccc4[C@@H]3CC[C@@]21C`, the AC50 runs as follows: under setting [1], 1.41 µM [falling, full curve, poor fit]; under setting [2], 1.41 µM [falling, partial curve].

`Cc1ncsc1CCOC(=O)c1ccc(N2CCOCC2)c([N+](=O)[O-])c1`: the AC50 under setting [1] was 0.00355 µM [rising, full curve, poor fit].

Turning to `Cc1cccc(CN2CCN(C(=O)CCl)CC2)c1`, under setting [1], the AC50 was 35.5 µM [falling, single point].

As to `COc1ccc(Br)cc1CNC(=O)c1cnc2sc(N3CCCCCC3)nn2c1=O`, the AC50 is, setting by setting: under setting [1], 17.8 µM [falling, partial curve, poor fit]; under setting [2], 0.282 µM [falling, full curve, poor fit].

As for `COc1ccc(S(=O)(=O)Nc2cc3c(C(C)=O)c(C)oc3c3ccccc23)cc1`, under setting [2], the AC50 was 10 µM [falling, partial curve, poor fit].

In the case of `CCSc1nc2c([nH]c3ccccc32)c(=O)n1-c1cccc(OC)c1`, the AC50 under setting [1] was 35.5 µM [falling, single point] and the AC50 under setting [2] was 35.5 µM [falling, single point].

As to `COc1cccc(NC(=O)Cn2c(=O)ccc3cc(S(=O)(=O)N4CCC(C)CC4)ccc32)c1`, under setting [1], the AC50 was 0.316 µM [rising, full curve].

For `NC(=O)C1CCN(c2ccc(C(F)(F)F)cn2)CC1`, the AC50 is 0.0891 µM [falling, full curve, poor fit] under setting [1] and 0.1 µM [falling, full curve, poor fit] under setting [2].

Take `COc1ccc(-c2nc3ccccc3n2Cc2ccc(C)cc2)cc1`: the AC50 under setting [2] is 11.2 µM [rising, single point].

In the case of `COc1ccc(NC(=O)c2cc3nc(-c4ccccc4)cc(C)n3n2)cc1OC`, the AC50 under setting [1] was 12.6 µM [falling, partial curve, poor fit] and the AC50 under setting [2] was 12.6 µM [falling, partial curve, poor fit].

As for `C=CCOc1c(Br)cc(CNc2ccc3[nH]c(=O)[nH]c3c2)cc1OCC`, the AC50 under setting [1] was 0.126 µM [falling, full curve, poor fit] and the AC50 under setting [2] was 0.1 µM [falling, full curve, poor fit].

With `Cn1nccc1C(=O)Nc1ccn(C23CC4CC(CC(C4)C2)C3)n1`, the AC50 under setting [2] was 7.08 µM [rising, partial curve].

For the compound `O=C(Nc1ccc(Cl)c(Cl)c1)c1ccc(Cn2cc(Cl)cn2)cc1`, the AC50 reads like this: under setting [1], 35.5 µM [falling, partial curve]; under setting [2], 35.5 µM [falling, partial curve].

Consider `CCCCc1nn2c(=O)cc(COC(=O)c3ccco3)nc2s1`, for which, under setting [1], the AC50 was 0.00501 µM [falling, full curve, poor fit].

Consider `COC(=O)c1c(-c2cc(C)ccc2C)csc1NC(=O)C1CC=CCC1C(=O)O` (centres undefined), for which the AC50 under setting [1] was 22.4 µM [falling, partial curve, poor fit].

Regarding `Cc1ccc(OCC(=O)N/N=C/c2ccc3c(c2)OCO3)cc1C`, under setting [1], the AC50 is 31.6 µM [rising, single point].

As for `CCCCC(=O)Nc1nnc(SCc2cc(=O)n3cc(C)ccc3n2)s1`, the AC50 under setting [1] is 0.562 µM [rising, full curve, poor fit].

Turning to `O=C(CNC(=O)c1ccco1)OCC(=O)c1ccc2ccccc2c1`, under setting [2], the AC50 was 0.0112 µM [falling, full curve, poor fit].

Take `NC(=O)NC(=O)COC(=O)c1ccc(Cl)c(S(=O)(=O)N(Cc2ccccc2)c2ccc(Cl)cc2)c1`: the AC50 was 35.5 µM [falling, single point] under setting [1] and 35.5 µM [falling, single point] under setting [2].

As to `Cc1ccc(CNC(=O)CSc2nc(=O)n(Cc3ccco3)c3c2CCC3)cc1`, the AC50 runs as follows: under setting [1], 3.55 µM [rising, partial curve, poor fit]; under setting [2], 2.82 µM [rising, partial curve].

Take `CC(=O)Oc1ccc(/C=N/NS(=O)(=O)c2ccccc2)cc1`: the AC50 under setting [1] is 1.58 µM [falling, full curve, poor fit].

`Cc1ccc(NC(=O)CSc2nc3nc(C)cc(C)c3c(=O)[nH]2)cc1`: the AC50 under setting [2] was 25.1 µM [rising, single point].

With `Cc1ccc(-n2[nH]c(C)c(CCC#N)c2=O)cc1`, under setting [1], the AC50 is 0.00891 µM [falling, full curve, poor fit].

Turning to `Cc1cccc2c(=O)cc(C)n(Cc3ccccc3)c12`, the AC50 is 15.8 µM [rising, partial curve, poor fit] under setting [1] and 7.94 µM [rising, partial curve, poor fit] under setting [2].

As for `CC(C)N1CCN(c2ccc(OC[C@@H]3CO[C@@](Cn4cncn4)(c4ccc(Cl)cc4Cl)O3)cc2)CC1`, the AC50 under setting [1] was 0.316 µM [falling, full curve, poor fit] and the AC50 under setting [2] was 0.00794 µM [falling, full curve, poor fit].

In the case of `CC(C)(C)NCC(O)c1ccc(O)c(CO)c1` (centres undefined), the AC50 under setting [1] was 31.6 µM [falling, single point] and 6.31 µM [rising, partial curve, poor fit].

With `COc1ccc(NC(=O)c2ccco2)cc1NC(=O)c1ccc(Br)o1`, the AC50 was 31.6 µM [rising, single point] under setting [1] and 35.5 µM [rising, single point] under setting [2].

With `CCC(C)n1c(-c2cc(OC)c(OC)c(OC)c2)nc2nc3ccccc3nc21` (centres undefined), under setting [2], the AC50 is 22.4 µM [rising, single point].

Take `Nc1ccc(C(=O)n2c3ccccc3c3ccccc32)cc1`: under setting [1], the AC50 was 1.41 µM [falling, partial curve].

Consider `CC1CCN(c2ccc(-c3cccc(NS(=O)(=O)c4cccs4)c3)nn2)CC1`, for which the AC50 was 0.447 µM [falling, full curve, poor fit] under setting [1] and 0.631 µM [falling, full curve, poor fit] under setting [2].

For the compound `CCc1ccc(S(=O)(=O)/N=C2/C=C(Sc3ncn[nH]3)C(=O)c3ccccc32)cc1`, the AC50 was 3.98 µM [falling, full curve] under setting [1] and 4.47 µM [falling, full curve] under setting [2].

Take `CC(=O)N1CCC(C(=O)Nc2ccccc2)(N(Cc2ccccc2)C(=O)c2cccnc2)CC1`: the AC50 under setting [1] was 2 µM [rising, single point].

As for `COc1cc(CNc2nnnn2C)ccc1OCc1c(F)cccc1Cl`, the AC50 under setting [1] is 0.0447 µM [rising, full curve, poor fit].

For the compound `CS(=O)(=O)N(CC(=O)Nc1ccc(CC#N)cc1)c1ccc(C23CC4CC(CC(C4)C2)C3)cc1`, the AC50 under setting [2] is 35.5 µM [rising, single point].

Consider `CCN1/C(=C/c2ccc3cc(C)cc(C)c3[n+]2CC)Sc2cc(C)ccc21`, for which the AC50 under setting [2] was 2.82 µM [rising, partial curve].

Take `COc1ccc(OC)c(C(=O)N2CCC(C(=O)c3ccc(F)cc3)CC2)c1`: the AC50 under setting [2] is 20 µM [rising, single point].

With `CCC1CN(S(=O)(=O)c2ccc3c(c2)NC(=O)CC(=O)N3)c2cc(Cl)ccc2O1` (centres undefined), the AC50 under setting [1] was 44.7 µM [rising, partial curve, poor fit].

For the compound `CCc1n(CC(O)COCC2CC=CCC2)c2ccccc2[n+]1C` (centres undefined), the AC50 is 17.8 µM [falling, single point] under setting [1] and 12.6 µM [falling, partial curve] under setting [2].

Consider `Cc1ccc(N2C(=O)CS(=O)(=O)CC2=O)cc1`, for which the AC50 under setting [2] was 4.47 µM [rising, full curve, poor fit].

As for `CCC(=O)O[C@@]1(C(=O)CCl)[C@@H](C)C[C@@H]2[C@H]3CCC4=CC(=O)C=C[C@@]4(C)[C@]3(F)[C@@H](O)C[C@@]21C`, the AC50 runs as follows: under setting [1], 7.94 µM [falling, single point]; under setting [2], 14.1 µM [falling, partial curve, poor fit].

Take `CN(Cc1c(F)cccc1Cl)C(=O)c1cc2ccccc2o1`: under setting [1], the AC50 was 4.47 µM [falling, full curve, poor fit].
